The experiment relates to L1210 leukemia ip in BDF1 mice, survival T/C. The experiment in a line: NCI In Vivo Anticancer Drug Screen. Data for tumor model L1210 Leukemia (intraperitoneal) in B6D2F1 (BDF1) mice. Conditions: T/C endpoint: mean survival time, higher T/C = longer survival.
[1] abbreviates: dose: 25.0 mg/kg/injection, schedule: Q01DX009 (ip), vehicle: Klucel (hydroxypropylcellulose) (HPC).
[2] abbreviates: dose: 200.0 mg/kg/injection, schedule: Q04DX003 (ip), vehicle: Klucel (hydroxypropylcellulose) (HPC).
Where [3] appears, read: dose: 400.0 mg/kg/injection, schedule: Q04DX003 (ip), vehicle: Klucel (hydroxypropylcellulose) (HPC).
Setting [4] is: dose: 100.0 mg/kg/injection, schedule: Q01DX009 (ip), vehicle: Klucel (hydroxypropylcellulose) (HPC).
The mark [5] stands for this setting: dose: 200.0 mg/kg/injection, schedule: Q01DX001 (ip), vehicle: Klucel (hydroxypropylcellulose) (HPC).
Where [6] appears, read: dose: 300.0 mg/kg/injection, schedule: Q01DX001 (ip), vehicle: saline.
Setting [7] is: dose: 400.0 mg/kg/injection, schedule: Q01DX001 (ip), vehicle: saline.
The mark [8] stands for this setting: dose: 200.0 mg/kg/injection, schedule: Q01DX Z (ip), vehicle: methylcellulose (MC).
The mark [9] stands for this setting: dose: 200.0 mg/kg/injection, schedule: Q04DX003 (ip), vehicle: saline with Tween-80.
The mark [10] stands for this setting: dose: 400.0 mg/kg/injection, schedule: Q01DX009 (ip), vehicle: saline.
[11] abbreviates: dose: 400.0 mg/kg/injection, schedule: Q01DX001 (ip), vehicle: Klucel (hydroxypropylcellulose) (HPC).
Where [12] appears, read: dose: 100.0 mg/kg/injection, schedule: Q01DX009 (ip), vehicle: saline.
Where [13] appears, read: dose: 200.0 mg/kg/injection, schedule: Q01DX001 (ip), vehicle: carboxymethylcellulose (CMC).

The list does not hold the whole screen: it gathers tests that were run many times, whatever their T/C, doses with no T/C, and many T/C values between a quarter and a half above the control. Other doses and runs of a compound stand elsewhere. T/C gives the treated animals as a percentage of the vehicle group. Some doses have a count of surviving animals in place of a T/C: the source holds a T/C of zero for them, seemingly a mark for toxic or unscored doses. Some survivor counts are full or nearly so, which does not show that the dose was tolerated: survival well below the control is almost never listed, so the zero probably covers shortened survival too. Survivors were counted at the toxicity check, usually on the fifth day, unless a day is given; later deaths do not show. Schedules are NCI's codes, taken here to give the interval after Q, in days (D) or hours (H), and the number of doses after X. Some schedules carry Z or #; the key to these is not given. For survival time, the PubChem record calls one and a half times the control and up active, and a quarter to a half above the control has no call in these data; cut-offs in other NCI protocols can differ. Some doses were run more than once; the values are given in rising order.

For `Cc1nc(C#N)c(C#N)nc1C`, the survivor count under setting [1] was 0 of 6; the survivor count (dose: 50.0 mg/kg/injection, schedule: Q04DX003 (ip), vehicle: Klucel (hydroxypropylcellulose) (HPC)) is 0 of 6; the survivor count (dose: 100.0 mg/kg/injection, schedule: Q04DX003 (ip), vehicle: Klucel (hydroxypropylcellulose) (HPC)) is 0 of 6; the survivor count under setting [2] is listed as 0 of 6; the survivor count under setting [3] is 0 of 6.
`Cn1c(=O)c2ccccc2c2cc([N+](=O)[O-])ccc21`: the survivor count under setting [3] was 6 of 6.
Turning to `C#CC(OC(=O)NC)(c1ccccc1)c1ccc(OC)cc1` (configuration not stated), the T/C is, setting by setting: (dose: 17.0 mg/kg/injection, schedule: Q01DX006 (ip), vehicle: Klucel (hydroxypropylcellulose) (HPC)) 128 % of control; under setting [1], 130 and 136 % of control. Besides, the survivor count runs as follows: under setting [4], 1 of 6; under setting [2], 2 of 6; under setting [3], 0 of 6.
With `O=C(c1ccc(F)cc1)C(F)(F)F`, the survivor count under setting [5] is recorded as 6 of 6.
In the case of `O=C(Nc1ccc(Cl)cc1)c1cc([N+](=O)[O-])ccc1O`, the T/C (dose: 15.2 mg/kg/injection, schedule: Q02DX010 (ip), vehicle: carboxymethylcellulose (CMC)) is 143 % of control.
With `CCOC(=O)C[n+]1ccccc1Br`, the survivor count (dose: 200.0 mg/kg/injection, schedule: Q01DX015 (ip), vehicle: water) is 0 of 6 and the survivor count (dose: 400.0 mg/kg/injection, schedule: Q01DX015 (ip), vehicle: water) is 0 of 6.
For the compound `Cc1ccc(N=Nc2c(C)nn(C(N)=S)c2-c2ccccc2)cc1`, the survivor count under setting [6] was 5 of 6.
On to `Nc1ccc(NS(=O)(=O)CS(=O)(=O)Nc2ccc(N)cc2)cc1`, for which the survivor count (dose: 80.0 mg/kg/injection, schedule: Q01DX001 (ip), vehicle: saline) is 2 of 6; the survivor count (dose: 100.0 mg/kg/injection, schedule: Q01DX001 (ip), vehicle: saline) was 0 of 4; the survivor count (dose: 200.0 mg/kg/injection, schedule: Q01DX001 (ip), vehicle: saline) is recorded as 0 of 4; the survivor count under setting [7] is 0 of 4.
On to `CNC/C(Cl)=N/S(=O)(=O)c1ccc(C)cc1`, for which the survivor count (dose: 25.0 mg/kg/injection, schedule: Q04DX002 (ip), vehicle: saline with Tween-80) is 3 of 3.
Regarding `Nc1[nH]c(=O)cc(O)c1N`, the survivor count is 6 of 6 (dose: 50.0 mg/kg/injection, schedule: Q04DX003 (ip), vehicle: saline); 0 of 6 (dose: 200.0 mg/kg/injection, schedule: Q04DX003 (ip), vehicle: saline); 1 of 6 (dose: 400.0 mg/kg/injection, schedule: Q04DX003 (ip), vehicle: saline).
Turning to `CCSc1ncc(Br)c(Sc2nc(N)nc3nc[nH]c23)n1`, the T/C is 131 % of control (dose: 3.0 mg/kg/injection, schedule: Q01DX Z (ip), vehicle: carboxymethylcellulose (CMC)); 133 % of control (dose: 6.0 mg/kg/injection, schedule: Q01DX Z (ip), vehicle: carboxymethylcellulose (CMC)); 126 % of control (dose: 50.0 mg/kg/injection, schedule: Q01DX001 (ip), vehicle: carboxymethylcellulose (CMC)); 139 % of control (dose: 100.0 mg/kg/injection, schedule: Q01DX001 (ip), vehicle: carboxymethylcellulose (CMC)). The survivor count was 3 of 6 (dose: 50.0 mg/kg/injection, schedule: Q01DX Z (ip), vehicle: methylcellulose (MC)); 6 of 6 (dose: 100.0 mg/kg/injection, schedule: Q01DX Z (ip), vehicle: methylcellulose (MC)); 3 of 6 under setting [8].
For the compound `CCCCCCCCCCCCCCCCCc1nc2nc(Cl)c(Cl)nc2[nH]1`, the survivor count under setting [9] was 6 of 6.
Consider `CC1CC(=O)C2CC(Cl)CCC2(C)C1C` (configuration not stated), for which the survivor count is 6 of 6 under setting [9] and 6 of 6 (dose: 400.0 mg/kg/injection, schedule: Q04DX003 (ip), vehicle: saline with Tween-80).
Consider `Cc1cccc(C)c1N(COCC(C)C)C(=O)CCl`, for which, under “dose: 400.0 mg/kg/injection, schedule: Q01DX009 (ip), vehicle: saline with Tween-80”, the survivor count was 0 of 6.
In the case of `Cc1nc2nc(N)[nH]c(=O)c2[nH]c1=O`, the survivor count under setting [10] is 6 of 6.
Regarding `C[N+](C)(C)CC1(COC(=O)C(O)(c2ccccc2)c2ccccc2)CC1`, the survivor count was 0 of 6 under setting [5] and 0 of 6 under setting [11].
For `CN1CCC(CSC(=O)C(O)(c2ccccc2)C2CCCCC2)C1` (configuration not stated), the survivor count (dose: 150.0 mg/kg/injection, schedule: Q01DX001 (ip), vehicle: saline) is given as 1 of 6 and the survivor count under setting [6] is on record as 0 of 6.
With `Cc1cc2no[n+]([O-])c2cc1C`, the survivor count under setting [11] is 1 of 6.
Consider `SCC1SCCCS1`, for which the survivor count is on record as 1 of 3 (dose: 100.0 mg/kg/injection, schedule: Q04DX002 (ip), vehicle: saline with Tween-80); 0 of 3 (dose: 200.0 mg/kg/injection, schedule: Q04DX002 (ip), vehicle: saline with Tween-80); 0 of 3 (dose: 400.0 mg/kg/injection, schedule: Q04DX002 (ip), vehicle: saline with Tween-80).
As for `CCCCC(C)(C)COc1nc(OCC(C)(C)CCCC)nc(OCC(C)(C)CCCC)n1`, the survivor count was 3 of 3 (dose: 160.0 mg/kg/injection, schedule: Q04DX002 (ip), vehicle: saline with Tween-80) and 6 of 6 under setting [9].
For `Nc1c[nH]c(=S)s1`, under setting [11], the survivor count is listed as 0 of 6.
With `Nc1cccc(Nc2cc(S(=O)(=O)O)c(N)c3c2C(=O)c2ccccc2C3=O)c1`, under setting [7], the survivor count was 1 of 6.
`O=C(NC1CCCCC1)Sc1ccc(Cl)cc1`: the survivor count was 3 of 6 under setting [4]; 3 of 6 (dose: 150.0 mg/kg/injection, schedule: Q01DX009 (ip), vehicle: Klucel (hydroxypropylcellulose) (HPC)); 1 of 6 under setting [2]; 2 of 6 (dose: 225.0 mg/kg/injection, schedule: Q01DX009 (ip), vehicle: Klucel (hydroxypropylcellulose) (HPC)); 0 of 6 (dose: 335.0 mg/kg/injection, schedule: Q01DX009 (ip), vehicle: Klucel (hydroxypropylcellulose) (HPC)); 0 of 6 under setting [3].
For `CCOC(=O)N1C=Cn2c(cnc2C)C1O` (configuration not stated), the survivor count is given as 5 of 6 under setting [12] and 3 of 6 under setting [10].
For `C1=C(COC(c2ccccc2)(c2ccccc2)c2ccccc2)CCCC1`, the survivor count under setting [13] is 4 of 4.
On to `Cc1cnc(SCc2ccc(Cl)cc2)nc1N(Cc1ccccc1)Cc1ccccc1`, for which the survivor count under setting [8] is listed as 5 of 6.
As to `O=P(N1CC1)(N1CC1)N(CCCCN(Cc1ccccc1)P(=O)(N1CC1)N1CC1)Cc1ccccc1`, the survivor count is, setting by setting: under setting [13], 2 of 4; (dose: 400.0 mg/kg/injection, schedule: Q01DX001 (ip), vehicle: carboxymethylcellulose (CMC)) 0 of 4.
With `C=C1C(=O)OC2C3=C(C)C(=O)CC3C3(C)CC3C12` (configuration not stated), the survivor count is recorded as 2 of 6 (dose: 100.0 mg/kg/injection, schedule: Q01DX001 (ip), vehicle: water) and 0 of 6 (dose: 200.0 mg/kg/injection, schedule: Q01DX001 (ip), vehicle: water).
As to `CSc1cc(C)c(OC(=O)Nc2cc(C)ccc2C)c(C)c1`, under setting [12], the survivor count was 6 of 6.
As to `CN1CCC2(CC1)C(=O)N(CC1COc3ccccc3O1)C(=O)C2c1ccccc1` (configuration not stated), the survivor count runs as follows: under setting [5], 0 of 6; under setting [11], 0 of 6.
In the case of `[Cl][Pd][Cl].[NH-]CCN1CC1`, the survivor count by setting is: (dose: 200.0 mg/kg/injection, schedule: Q04DX002 (ip), vehicle: saline) 1 of 3; (dose: 400.0 mg/kg/injection, schedule: Q04DX002 (ip), vehicle: saline) 0 of 3.

The record behind these values is PubChem BioAssay AID248 (DTP/NCI, 2004).
